The target in this experiment is T1, RAP80 zinc finger (490–584 aa) (human) (UniProt Q96RL1).
T1 sequence: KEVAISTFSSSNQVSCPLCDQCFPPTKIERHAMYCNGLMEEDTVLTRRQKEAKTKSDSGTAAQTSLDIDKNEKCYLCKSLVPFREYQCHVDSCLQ
The experiment is described as follows: SEC; purified proteins mixed in a molar ratio of approximately 1:1, pre-incubated 30 min at 4 °C, Superdex 200 HR 10/30, 20 mM Tris-HCl pH 8.0, 150 mM NaCl; fractions on SDS-PAGE; both purified. (In general: In gel filtration, larger molecules generally elute earlier.)

Results are given in words; binding and its absence hold for the method and conditions named.

Drawing on paper PMC8626312, “In vitro assembly complex formation of TRAIP CC and RAP 80 zinc finger motif revealed by our study” (Saudi Journal of Biological Sciences, 2021), this text covers binding for 1 molecule.

B1: TRAIP RINGCC (1-157aa) (domain or fragment, human, UniProt Q9BWF2 1-157, looked up)
chain: MPIRALCTICSDFFDHSRDVAAIHCGHTFHLQCLIQWFETAPSRTCPQCRIQVGKRTIINKLFFDLAQEEENVLDAEFLKNELDNVRAQLSQKDKEKRDSQVIIDTLRDTLEERNATVVSLQQALGKAEMLCSTLKKQMKYLEQQQDETKQAQEEAR
notes: the methods name pET24a with a C-terminal His6; One sentence of the results prints 1–517; also called TRAIP-5; TRAIP RINGCC (1–517); source: E. coli BL21 (DE3), purified (Ni-NTA, SEC)
Turning to B1, the binding entry is on record as “no binding”.
